{"source": "paper PMC10533337", "target": "T1, His-MYB156 (UniProt A0A9E9JN96)", "T1 sequence (looked up, limits assumed)": "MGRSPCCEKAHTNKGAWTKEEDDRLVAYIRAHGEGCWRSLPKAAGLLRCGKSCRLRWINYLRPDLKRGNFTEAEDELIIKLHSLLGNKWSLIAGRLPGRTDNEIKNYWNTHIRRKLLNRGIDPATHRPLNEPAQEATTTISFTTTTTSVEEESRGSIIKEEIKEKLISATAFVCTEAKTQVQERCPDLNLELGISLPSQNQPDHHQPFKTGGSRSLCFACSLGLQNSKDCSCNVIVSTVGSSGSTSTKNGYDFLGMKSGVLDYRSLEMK", "assay": "EMSA", "conditions": "poly(dI-dC) 25 ng/uL; 20 uL: 1x binding buffer (LightShift kit, Thermo), 0.05% NP40, 1 mM DTT, 2.5 mM MgCl2, 25 ng/uL poly(dI-dC), 200 ng protein, 2.5 ng probe; room temperature, 30 min; recombinant protein; protein details: His (pET30a); label: 5' biotin", "note": "The exact form of at least one protein or probe is not confirmed. No signal at the amounts used counts as a negative. Protein sequences can lack the tags named with them."}
{"sequence": "TTTTTTATTTAGATAGTAATAATTTTAGG (double strand) [P1mAC probe (AC-III mutated to AAATAAA)]", "values": [{"measurement": "binding result", "result": "no binding"}]}
